Measurements reported in US12419871B2, “Biomolecules involved in Alzheimer's disease” (ELECTROPHORETICS LIMITED, priority 2015, dated 2025).

B1: Q02156 (protein, UniProt Q02156 1-737, looked up)
chain: MVVFNGLLKIKICEAVSLKPTAWSLRHAVGPRPQTFLLDPYIALNVDDSRIGQTATKQKTNSPAWHDEFVTDVCNGRKIELAVFHDAPIGYDDFVANCTIQFEELLQNGSRHFEDWIDLEPEGRVYVIIDLSGSSGEAPKDNEERVFRERMRPRKRQGAVRRRVHQVNGHKFMATYLRQPTYCSHCRDFIWGVIGKQGYQCQVCTCVVHKRCHELIITKCAGLKKQETPDQVGSQRFSVNMPHKFGIHNYKVPTFCDHCGSLLWGLLRQGLQCKVCKMNVHRRCETNVAPNCGVDARGIAKVLADLGVTPDKITNSGQRRKKLIAGAESPQPASGSSPSEEDRSKSAPTSPCDQEIKELENNIRKALSFDNRGEEHRAASSPDGQLMSPGENGEVRQGQAKRLGLDEFNFIKVLGKGSFGKVMLAELKGKDEVYAVKVLKKDVILQDDDVDCTMTEKRILALARKHPYLTQLYCCFQTKDRLFFVMEYVNGGDLMFQIQRSRKFDEPRSRFYAAEVTSALMFLHQHGVIYRDLKLDNILLDAEGHCKLADFGMCKEGILNGVTTTTFCGTPDYIAPEILQELEYGPSVDWWALGVLMYEMMAGQPPFEADNEDDLFESILHDDVLYPVWLSKEAVSILKAFMTKNPHKRLGCVASQNGEDAIKQHPFFKEIDWVLLEQKKIKPPFKPRIKTKRDVNNFDQDFTREEPVLTLVDEAIVKQINQEEFKGFSYFGEDLMP
modifications: full-length
B2: Q96A00 (protein, listed as Homo sapiens)
chain: MAAQRLGKRVLSKLQSPSRARGPGGSPGGLQKRHARVTVKYDRRELQRRLDVEKWIDGRLEELYRGMEADMPDEINIDELLELESEEERSRKIQGLLKSCGKPVEDFIQELLAKLQGLHRQPGLRQPSPSHDGSLSPLQDRARTAHP
B3: Q99435 (protein, UniProt Q99435 1-816, looked up)
chain: MESRVLLRTFCLIFGLGAVWGLGVDPSLQIDVLTELELGESTTGVRQVPGLHNGTKAFLFQDTPRSIKASTATAEQFFQKLRNKHEFTILVTLKQTHLNSGVILSIHHLDHRYLELESSGHRNEVRLHYRSGSHRPHTEVFPYILADDKWHKLSLAISASHLILHIDCNKIYERVVEKPSTDLPLGTTFWLGQRNNAHGYFKGIMQDVQLLVMPQGFIAQCPDLNRTCPTCNDFHGLVQKIMELQDILAKTSAKLSRAEQRMNRLDQCYCERTCTMKGTTYREFESWIDGCKNCTCLNGTIQCETLICPNPDCPLKSALAYVDGKCCKECKSICQFQGRTYFEGERNTVYSSSGVCVLYECKDQTMKLVESSGCPALDCPESHQITLSHSCCKVCKGYDFCSERHNCMENSICRNLNDRAVCSCRDGFRALREDNAYCEDIDECAEGRHYCRENTMCVNTPGSFMCICKTGYIRIDDYSCTEHDECITNQHNCDENALCFNTVGGHNCVCKPGYTGNGTTCKAFCKDGCRNGGACIAANVCACPQGFTGPSCETDIDECSDGFVQCDSRANCINLPGWYHCECRDGYHDNGMFSPSGESCEDIDECGTGRHSCANDTICFNLDGGYDCRCPHGKNCTGDCIHDGKVKHNGQIWVLENDRCSVCSCQNGFVMCRRMVCDCENPTVDLFCCPECDPRLSSQCLHQNGETLYNSGDTWVQNCQQCRCLQGEVDCWPLPCPDVECEFSILPENECCPRCVTDPCQADTIRNDITKTCLDEMNVVRFTGSSWIKHGTECTLCQCKNGHICCSVDPQCLQEL
modifications: full-length
B4: O75323 (protein, UniProt O75323 1-286, looked up)
chain: MAARVLRARGAAWAGGLLQRAAPCSLLPRLRTWTSSSNRSREDSWLKSLFVRKVDPRKDAHSNLLAKKETSNLYKLQFHNVKPECLEAYNKICQEVLPKIHEDKHYPCTLVGTWNTWYGEQDQAVHLWRYEGGYPALTEVMNKLRENKEFLEFRKARSDMLLSRKNQLLLEFSFWNEPVPRSGPNIYELRSYQLRPGTMIEWGNYWARAIRFRQDGNEAVGGFFSQIGQLYMVHHLWAYRDLQTREDIRNAAWHKHGWEELVYYTVPLIQEMESRIMIPLKTSPLQ
modifications: full-length
B5: Q9UFN0 (protein, UniProt Q9UFN0 1-247, looked up)
chain: MLVLRSALTRALASRTLAPQMCSSFATGPRQYDGIFYEFRSYYLKPSKMNEFLENFEKNAHLRTAHSELVGYWSVEFGGRMNTVFHIWKYDNFAHRTEVRKALAKDKEWQEQFLIPNLALIDKQESEITYLVPWCKLEKPPKEGVYELATFQMKPGGPALWGDAFKRAVHAHVNLGYTKLVGVFHTEYGALNRVHVLWWNESADSRAAGRHKSHEDPRVVAAVRESVNYLVSQQNMLLIPTSFSPLK
modifications: full-length
B6: Q13045 (protein, UniProt Q13045 1-1269, looked up)
chain: MEATGVLPFVRGVDLSGNDFKGGYFPENVKAMTSLRWLKLNRTGLCYLPEELAALQKLEHLSVSHNNLTTLHGELSSLPSLRAIVARANSLKNSGVPDDIFKLDDLSVLDLSHNQLTECPRELENAKNMLVLNLSHNSIDTIPNQLFINLTDLLYLDLSENRLESLPPQMRRLVHLQTLVLNGNPLLHAQLRQLPAMTALQTLHLRSTQRTQSNLPTSLEGLSNLADVDLSCNDLTRVPECLYTLPSLRRLNLSSNQITELSLCIDQWVHVETLNLSRNQLTSLPSAICKLSKLKKLYLNSNKLDFDGLPSGIGKLTNLEEFMAANNNLELVPESLCRCPKLRKLVLNKNHLVTLPEAIHFLTEIEVLDVRENPNLVMPPKPADRAAEWYNIDFSLQNQLRLAGASPATVAAAAAAGSGPKDPMARKMRLRRRKDSAQDDQAKQVLKGMSDVAQEKNKKQEESADARAPSGKVRRWDQGLEKPRLDYSEFFTEDVGQLPGLTIWQIENFVPVLVEEAFHGKFYEADCYIVLKTFLDDSGSLNWEIYYWIGGEATLDKKACSAIHAVNLRNYLGAECRTVREEMGDESEEFLQVFDNDISYIEGGTASGFYTVEDTHYVTRMYRVYGKKNIKLEPVPLKGTSLDPRFVFLLDRGLDIYVWRGAQATLSSTTKARLFAEKINKNERKGKAEITLLVQGQELPEFWEALGGEPSEIKKHVPEDFWPPQPKLYKVGLGLGYLELPQINYKLSVEHKQRPKVELMPRMRLLQSLLDTRCVYILDCWSDVFIWLGRKSPRLVRAAALKLGQELCGMLHRPRHATVSRSLEGTEAQVFKAKFKNWDDVLTVDYTRNAEAVLQSPGLSGKVKRDAEKKDQMKADLTALFLPRQPPMSLAEAEQLMEEWNEDLDGMEGFVLEGKKFARLPEEEFGHFYTQDCYVFLCRYWVPVEYEEEEKKEDKEEKAEGKEGEEATAEAEEKQPEEDFQCIVYFWQGREASNMGWLTFTFSLQKKFESLFPGKLEVVRMTQQQENPKFLSHFKRKFIIHRGKRKAVQGAQQPSLYQIRTNGSALCTRCIQINTDSSLLNSEFCFILKVPFESEDNQGIVYAWVGRASDPDEAKLAEDILNTMFDTSYSKQVINEGEEPENFFWVGIGAQKPYDDDAEYMKHTRLFRCSNEKGYFAVTEKCSDFCQDDLADDDIMLLDNGQEVYMWVGTQTSQVEIKLSLKACQVYIQHMRSKEHERPRRLRLVRKGNEQHAFTRCFHAWSAFCKALA
modifications: full-length
B7: Q9BPW8 (protein, UniProt Q9BPW8 1-284, looked up)
chain: MAPRLCSISVTARRLLGGPGPRAGDVASAAAARFYSKDNEGSWFRSLFVHKVDPRKDAHSTLLSKKETSNLYKIQFHNVKPEYLDAYNSLTEAVLPKLHLDEDYPCSLVGNWNTWYGEQDQAVHLWRFSGGYPALMDCMNKLKNNKEYLEFRRERSQMLLSRRNQLLLEFSFWNEPQPRMGPNIYELRTYKLKPGTMIEWGNNWARAIKYRQENQEAVGGFFSQIGELYVVHHLWAYKDLQSREETRNAAWRKRGWDENVYYTVPLVRHMESRIMIPLKISPLQ
modifications: full-length

Assay: TMTcalibrator quantification of regulated proteins in AD CSF versus control
Parameters: species or system human
Conditions: CSF of AD patient versus control; non-modified peptides of each protein summed for three control and three AD cases

Molecule | Log2 AD/Control
B1 | 0.99
B2 | 0.70
B3 | 0.68
B4 | 1.61
B5 | 0.73
B6 | 0.65
B7 | 0.80
